This test concerns the target Thrombospondin 1 (THBS1) (human (endogenous in BEAS-2B)) (UniProt P07996). Nature of the test: co-IP; BEAS-2B lysates in IP buffer, protein A/G agarose beads and anti-tag antibody overnight at 4 °C, washed with NaCl buffer, Western blot; cells under control, LPS + CIH, LPS + CIH + Ang-(1-7) or ad-THBS1 conditions; which protein was precipitated is not told.

The chains behind the UniProt entries cited, without tags or fusion partners. Residues count along the entry.
UniProt P07996, residues 19-1170: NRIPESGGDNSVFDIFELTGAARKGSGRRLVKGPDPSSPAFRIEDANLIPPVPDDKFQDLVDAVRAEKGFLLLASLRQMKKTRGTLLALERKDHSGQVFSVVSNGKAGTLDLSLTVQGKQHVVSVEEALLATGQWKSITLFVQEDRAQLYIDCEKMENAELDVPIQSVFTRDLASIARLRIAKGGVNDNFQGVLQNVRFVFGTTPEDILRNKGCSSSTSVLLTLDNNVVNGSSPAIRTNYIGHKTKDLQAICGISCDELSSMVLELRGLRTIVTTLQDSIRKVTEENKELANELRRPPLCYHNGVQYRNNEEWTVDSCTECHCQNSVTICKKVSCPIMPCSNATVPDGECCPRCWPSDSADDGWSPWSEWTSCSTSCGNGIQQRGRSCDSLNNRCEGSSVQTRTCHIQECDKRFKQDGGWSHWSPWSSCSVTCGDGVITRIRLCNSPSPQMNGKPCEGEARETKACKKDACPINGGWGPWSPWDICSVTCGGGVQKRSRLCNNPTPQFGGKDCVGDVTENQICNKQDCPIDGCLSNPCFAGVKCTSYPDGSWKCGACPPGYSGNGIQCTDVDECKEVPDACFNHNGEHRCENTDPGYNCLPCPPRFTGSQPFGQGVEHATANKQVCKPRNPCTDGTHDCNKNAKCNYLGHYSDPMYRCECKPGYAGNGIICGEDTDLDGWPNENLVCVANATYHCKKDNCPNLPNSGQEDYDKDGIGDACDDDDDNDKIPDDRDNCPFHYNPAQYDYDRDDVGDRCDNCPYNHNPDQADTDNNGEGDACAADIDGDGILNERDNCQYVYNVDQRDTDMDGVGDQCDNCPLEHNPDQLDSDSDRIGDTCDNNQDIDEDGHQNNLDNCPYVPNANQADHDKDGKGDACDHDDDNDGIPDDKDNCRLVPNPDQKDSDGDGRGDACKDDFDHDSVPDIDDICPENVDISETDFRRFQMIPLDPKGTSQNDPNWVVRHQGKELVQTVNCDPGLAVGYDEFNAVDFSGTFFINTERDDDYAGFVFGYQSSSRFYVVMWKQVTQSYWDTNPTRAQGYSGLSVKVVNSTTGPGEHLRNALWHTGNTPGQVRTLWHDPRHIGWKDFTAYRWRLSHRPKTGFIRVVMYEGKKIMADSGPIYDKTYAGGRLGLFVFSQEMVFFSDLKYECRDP

No constants are given. Whether binding was seen depends on the method and setting. Binding seen in cells or lysates may run through a third protein.

B1: ULK2 (protein, UniProt Q8IYT8 1-1036)
chain: MEVVGDFEYSKRDLVGHGAFAVVFRGRHRQKTDWEVAIKSINKKNLSKSQILLGKEIKILKELQHENIVALYDVQELPNSVFLVMEYCNGGDLADYLQAKGTLSEDTIRVFLHQIAAAMRILHSKGIIHRDLKPQNILLSYANRRKSSVSGIRIKIADFGFARYLHSNMMAATLCGSPMYMAPEVIMSQHYDAKADLWSIGTVIYQCLVGKPPFQANSPQDLRMFYEKNRSLMPSIPRETSPYLANLLLGLLQRNQKDRMDFEAFFSHPFLEQGPVKKSCPVPVPMYSGSVSGSSCGSSPSCRFASPPSLPDMQHIQEENLSSPPLGPPNYLQVSKDSASTSSKNSSCDTDDFVLVPHNISSDHSCDMPVGTAGRRASNEFLVCGGQCQPTVSPHSETAPIPVPTQIRNYQRIEQNLTSTASSGTNVHGSPRSAVVRRSNTSPMGFLRPGSCSPVPADTAQTVGRRLSTGSSRPYSPSPLVGTIPEQFSQCCCGHPQGHDSRSRNSSGSPVPQAQSPQSLLSGARLQSAPTLTDIYQNKQKLRKQHSDPVCPSHTGAGYSYSPQPSRPGSLGTSPTKHLGSSPRSSDWFFKTPLPTIIGSPTKTTAPFKIPKTQASSNLLALVTRHGPAEEQSKDGNEPRECAHCLLVQGSERQRAEQQSKAVFGRSVSTGKLSDQQGKTPICRHQGSTDSLNTERPMDIAPAGACGGVLAPPAGTAASSKAVLFTVGSPPHSAAAPTCTHMFLRTRTTSVGPSNSGGSLCAMSGRVCVGSPPGPGFGSSPPGAEAAPSLRYVPYGASPPSLEGLITFEAPELPEETLMEREHTDTLRHLNVMLMFTECVLDLTAMRGGNPELCTSAVSLYQIQESVVVDQISQLSKDWGRVEQLVLYMKAAQLLAASLHLAKAQIKSGKLSPSTAVKQVVKNLNERYKFCITMCKKLTEKLNRFFSDKQRFIDEINSVTAEKLIYNCAVEMVQSAALDEMFQQTEDIVYRYHKAALLLEGLSRILQDPADIENVHKYKCSIERRLSALCHSTATV
Turning to B1, the binding entry is recorded as “no binding”.

(Values after article PMC10545676.)
